Results are given in words; binding and its absence hold for the method and conditions named. In cells and extracts the contact can be indirect. Binding can be weak; no strength is given.

Sequences of proteins named here, by UniProt entry; tags and fusion partners are left off. A change or cut given only in a name is not applied to a line headed by its entry.
UniProt P06748: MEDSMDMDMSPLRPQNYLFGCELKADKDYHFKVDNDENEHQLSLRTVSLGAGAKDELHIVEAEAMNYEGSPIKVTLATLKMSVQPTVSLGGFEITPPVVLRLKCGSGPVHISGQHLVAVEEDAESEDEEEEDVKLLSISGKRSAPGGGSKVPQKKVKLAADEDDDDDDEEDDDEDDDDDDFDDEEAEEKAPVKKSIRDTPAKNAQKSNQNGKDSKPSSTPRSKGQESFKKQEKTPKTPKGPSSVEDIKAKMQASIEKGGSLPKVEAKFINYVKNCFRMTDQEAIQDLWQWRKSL
UniProt Q9Y3D8: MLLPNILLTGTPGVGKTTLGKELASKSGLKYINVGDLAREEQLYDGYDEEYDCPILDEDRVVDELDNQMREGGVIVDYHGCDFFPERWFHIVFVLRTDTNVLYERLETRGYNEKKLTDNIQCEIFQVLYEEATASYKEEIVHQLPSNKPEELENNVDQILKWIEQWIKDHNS

In this test the target is endogenous NPM1 of the NPM1 mutant OCI-AML3 cell line (human (endogenous in OCI-AML3)) (UniProt P06748). In words: co-IP; endogenous proteins, NPM1 mutant OCI-AML3 cell line (Supplementary Fig. 2b).

Turning to “endogenous hCINAP (from UniProt Q9Y3D8 1-172)”, the binding result was “binds”.
